PubChem BioAssay AID602196 – INSERM | 2012
In all, the deposit lists about 23,000 reagents; below is an unselected part. In the full data, 455 (2%) were called active. 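Active includes both protection and sensitisation; some change values fall well beyond the stated -50 to +50 range.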 Reagents against one gene are numbered here. Further read-outs or replicates are left out here. No sequences are given here. Not stated in the record: the amount of reagent.

Aim: 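Modifiers of cisplatin sensitivity in A549 cells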
System: human A549 lung cancer cells
Reagents: siRNA pair against human genes
Timing: 48 h transfection before cisplatin; time from cisplatin to read-out not stated
Treatment: cisplatin at a dose killing half of control-siRNA cells; exact dose and duration not given
Measurement: 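Shift in cisplatin death relative to control siRNA, from -50 (all cells die) to +50 (no cells die); siRNAs harmful on their own scored 0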
Scale: two-siRNA summed score (-2 to +2): higher = both siRNAs protect from cisplatin killing; -2 means both sensitise
Call rule: 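Each siRNA scores 0 if harmful alone by LDH or WST-1, otherwise +1 if it reduces and -1 if it increases cisplatin killing; a gene is active when both siRNAs agree (sum +2 or -2)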
Meaning of the calls: active = both siRNAs shift cisplatin killing the same way; inactive = no consistent shift, or siRNA harmful alone

With knock-down of C10orf67 #1, the record shows two-siRNA summed score (-2 to +2) = -1; inactive.
C10orf67 #2 scored two-siRNA summed score (-2 to +2) = 1; inactive.
For S1PR3 #1, the entry reads two-siRNA summed score (-2 to +2) = -2; active.
For S1PR3 #2 the deposit lists two-siRNA summed score (-2 to +2) = 0; inactive.

No new results follow: an excerpt of the list.
C10orf67 #1: two-siRNA summed score (-2 to +2) = -1; activity call = inactive
C10orf67 #2: two-siRNA summed score (-2 to +2) = 1; activity call = inactive

The listing continues.
For OR8B4, the values are two-siRNA summed score (-2 to +2) = 0; inactive.
For LOC391025, the entry reads two-siRNA summed score (-2 to +2) = 0; inactive.
Against GREB1, the values are two-siRNA summed score (-2 to +2) = 0; inactive.
Against SCN9A the deposit lists two-siRNA summed score (-2 to +2) = 0; inactive.
After knock-down of LOC440729, the screen gave two-siRNA summed score (-2 to +2) = 0; inactive.
DKFZp434E1119 (retired record) scored two-siRNA summed score (-2 to +2) = 0; inactive.
CLDN16 gave two-siRNA summed score (-2 to +2) = 0; inactive.
Against ZNF555, the values are two-siRNA summed score (-2 to +2) = 0; inactive.
